The record followed here is article PMC7463352.

Protein sequences, listed by entry. Tags and fused reporters are not part of them. Residues count along the entry.
UniProt P11362, residues 22-376: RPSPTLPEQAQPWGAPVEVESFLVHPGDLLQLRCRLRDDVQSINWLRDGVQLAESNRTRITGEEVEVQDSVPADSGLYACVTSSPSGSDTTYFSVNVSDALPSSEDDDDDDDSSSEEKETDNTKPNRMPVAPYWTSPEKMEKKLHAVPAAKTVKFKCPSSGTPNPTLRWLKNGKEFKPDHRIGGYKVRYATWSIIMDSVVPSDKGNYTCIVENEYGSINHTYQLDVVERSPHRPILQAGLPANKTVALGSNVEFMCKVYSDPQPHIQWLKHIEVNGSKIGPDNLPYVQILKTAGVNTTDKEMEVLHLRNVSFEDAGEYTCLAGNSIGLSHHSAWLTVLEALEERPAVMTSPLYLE
UniProt P09382: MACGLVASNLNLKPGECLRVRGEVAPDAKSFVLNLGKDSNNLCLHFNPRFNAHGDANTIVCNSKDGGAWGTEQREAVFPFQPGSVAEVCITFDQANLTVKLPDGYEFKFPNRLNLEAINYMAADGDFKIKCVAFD

Results are given in words; binding and its absence hold for the method and conditions named. Some results given as binding are weak or reduced against the parent protein; the word gives no strength.

This assay addresses Fully glycosylated extracellular domain of FGFR1 IIIc fused to the Fc fragment of human IgG1 (UniProt P11362). Put plainly: BLI; competitive BLI; FGFR1‐Fc (30 μg/mL) immobilised on ProtA biosensors, left untreated or incubated with saturating B‐Fc or T‐Fc; then FGF1, galectin‐1 or galectin‐3 (50 μg/mL) with or without B‐Fc or T‐Fc (0.3 μM); PBS; both purified.

As to “Recombinant galectin‐1 (from UniProt P09382 1-135)”, the binding result is given as “binds”.
